# In the supplement of paper PMC8728848:
# This is one part of the list.
# Assays:
# Experiment in all cases: glycan array binding signal (z-score within array); higher = stronger binding
# Settings in all cases: glycan notation: IUPAC condensed, linker removed
# [1] = biological target: GlcNAc(a1-4)Gal(b1-4)GlcNAc(b1-3)Gal(b1-4)GlcNAc
# How it was run: (§1)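 Glycan array binding is given as a within-array Z-score, which can be read as non-binding when negative. The arrays, 3228 of them, came from the Consortium for Functional Glycomics database and were retained only where the protein sequence was available. Z-scores were averaged across arrays of the same protein sequence at different concentrations or buffers and across linkers.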
# [2] = biological target: GlcNAc(a1-4)Gal(b1-4)GlcNAc(b1-3)Gal(b1-4)GlcNAc(b1-3)Gal(b1-4)GlcNAc
# How it was run: as §1
# [3] = biological target: GlcNAc(a1-4)Gal(b1-4)GlcNAc(b1-3)Gal(b1-4)[Fuc(a1-3)]GlcNAc(b1-3)Gal(b1-4)[Fuc(a1-3)]GlcNAc
# How it was run: as §1
# [4] = biological target: GlcNAc(a1-6)Gal(b1-4)GlcNAc
# How it was run: as §1
# [5] = biological target: GlcNAc(b1-2)Gal(b1-3)GalNAc
# How it was run: as §1
# [6] = biological target: GlcNAc(b1-2)Man(a1-3)[GlcNAc(b1-2)Man(a1-6)]Man(b1-4)GlcNAc(b1-4)GlcNAc
# How it was run: as §1
# [7] = biological target: GlcNAc(b1-2)Man(a1-3)[GlcNAc(b1-2)Man(a1-6)]Man(b1-4)GlcNAc(b1-4)[Fuc(a1-6)]GlcNAc
# How it was run: as §1
# [8] = biological target: GlcNAc(b1-2)Man(a1-3)[GlcNAc(b1-4)][GlcNAc(b1-2)Man(a1-6)]Man(b1-4)GlcNAc(b1-4)GlcNAc
# How it was run: as §1
# [9] = biological target: GlcNAc(b1-2)[GlcNAc(b1-4)]Man(a1-3)[GlcNAc(b1-2)Man(a1-6)]Man(b1-4)GlcNAc(b1-4)GlcNAc
# How it was run: as §1
# [10] = biological target: GlcNAc(b1-2)[GlcNAc(b1-4)]Man(a1-3)[GlcNAc(b1-4)][GlcNAc(b1-2)Man(a1-6)]Man(b1-4)GlcNAc(b1-4)GlcNAc
# How it was run: as §1
# [11] = biological target: GlcNAc(b1-2)[GlcNAc(b1-4)]Man(a1-3)[GlcNAc(b1-4)][GlcNAc(b1-2)[GlcNAc(b1-6)]Man(a1-6)]Man(b1-4)GlcNAc(b1-4)GlcNAc
# How it was run: as §1
# [12] = biological target: GlcNAc(b1-2)[GlcNAc(b1-6)]Man(a1-6)[GlcNAc(b1-2)Man(a1-3)]Man(b1-4)GlcNAc(b1-4)GlcNAc
# How it was run: as §1
# [13] = biological target: GlcNAc(b1-2)[GlcNAc(b1-6)]Man(a1-6)[GlcNAc(b1-2)Man(a1-3)][GlcNAc(b1-4)]Man(b1-4)GlcNAc(b1-4)GlcNAc
# How it was run: as §1
# GlcNAc(b1-3)Gal = biological target: GlcNAc(b1-3)Gal
# How it was run: as §1
# [14] = biological target: GlcNAc(b1-3)Gal(b1-3)GalNAc
# How it was run: as §1
# GlcNAc(b1-3)Gal(b1-4)Glc = biological target: GlcNAc(b1-3)Gal(b1-4)Glc
# How it was run: as §1
# [15] = biological target: GlcNAc(b1-3)Gal(b1-4)GlcNAc
# How it was run: as §1
# [16] = biological target: GlcNAc(b1-3)Gal(b1-4)GlcNAc(b1-3)Gal(b1-4)GlcNAc
# How it was run: as §1
# GlcNAc(b1-3)GalNAc = biological target: GlcNAc(b1-3)GalNAc
# How it was run: as §1
# GlcNAc(b1-3)Man = biological target: GlcNAc(b1-3)Man
# How it was run: as §1
# [17] = biological target: GlcNAc(b1-3)[GlcNAc(b1-4)][GlcNAc(b1-6)]GlcNAc
# How it was run: as §1
# [18] = biological target: GlcNAc(b1-3)[GlcNAc(b1-6)]Gal(b1-4)GlcNAc
# How it was run: as §1
# [19] = biological target: GlcNAc(b1-3)[GlcNAc(b1-6)]GalNAc
# How it was run: as §1
# [20] = biological target: GlcNAc(b1-4)Gal(b1-4)GlcNAc
# How it was run: as §1
# GlcNAc(b1-4)GlcNAc = biological target: GlcNAc(b1-4)GlcNAc
# How it was run: as §1
# [21] = biological target: GlcNAc(b1-4)GlcNAc(b1-4)GlcNAc
# How it was run: as §1
# [22] = biological target: GlcNAc(b1-4)GlcNAc(b1-4)GlcNAc(b1-4)GlcNAc(b1-4)GlcNAc
# How it was run: as §1
# [23] = biological target: GlcNAc(b1-4)GlcNAc(b1-4)GlcNAc(b1-4)GlcNAc(b1-4)GlcNAc(b1-4)GlcNAc
# How it was run: as §1
# [24] = biological target: GlcNAc(b1-4)[GlcNAc(b1-6)]GalNAc
# How it was run: as §1
# [25] = biological target: GlcNAc(b1-6)Gal(b1-4)GlcNAc
# How it was run: as §1
# GlcNAc(b1-6)GalNAc = biological target: GlcNAc(b1-6)GalNAc
# How it was run: as §1
# GlcNAc3Prop(b1-4)GlcNAc = biological target: GlcNAc3Prop(b1-4)GlcNAc
# How it was run: as §1
# [26] = biological target: GlcNAc6S(b1-3)Gal(b1-4)GlcNAc
# How it was run: as §1
# Kdn(a2-3)Gal(b1-3)GalNAc = biological target: Kdn(a2-3)Gal(b1-3)GalNAc
# How it was run: as §1
# Kdn(a2-3)Gal(b1-3)GlcNAc = biological target: Kdn(a2-3)Gal(b1-3)GlcNAc
# How it was run: as §1
# Kdn(a2-3)Gal(b1-4)Glc = biological target: Kdn(a2-3)Gal(b1-4)Glc
# How it was run: as §1
# Kdn(a2-3)Gal(b1-4)GlcNAc = biological target: Kdn(a2-3)Gal(b1-4)GlcNAc
# How it was run: as §1
# [27] = biological target: Kdn(a2-3)Gal(b1-4)[Fuc(a1-3)]GlcNAc
# How it was run: as §1
# Kdn(a2-6)Gal(b1-4)GlcNAc = biological target: Kdn(a2-6)Gal(b1-4)GlcNAc
# How it was run: as §1
# [28] = biological target: Man(a1-2)Man(a1-2)Man(a1-3)Man
# How it was run: as §1
# [29] = biological target: Man(a1-2)Man(a1-2)Man(a1-6)[Man(a1-3)]Man
# How it was run: as §1
# Man(a1-2)Man(a1-3)Man = biological target: Man(a1-2)Man(a1-3)Man
# How it was run: as §1
# [30] = biological target: Man(a1-2)Man(a1-3)[Man(a1-2)Man(a1-6)]Man
# How it was run: as §1
# [31] = biological target: Man(a1-2)Man(a1-3)[Man(a1-2)Man(a1-6)]Man(a1-6)[Man(a1-2)Man(a1-2)Man(a1-3)]Man
# How it was run: as §1
# [32] = biological target: Man(a1-2)Man(a1-3)[Man(a1-2)Man(a1-6)]Man(a1-6)[Man(a1-2)Man(a1-2)Man(a1-3)]Man(b1-4)GlcNAc(b1-4)GlcNAc
# How it was run: as §1
binder,measurement,setting,value
"Eosinophil-derived neurotoxin (EDN) (Homo sapiens), P10153 (protein) MVPKLFTSQICLLLLLGLLAVEGSLHVKPPQFTWAQWFETQHINMTSQQCTNAMQVINNYQRRCKNQNTFLLTTFANVVNVCGNPNMTCPSNKTRKNCHHSGSQVPLIHCNLTTPSPQNISNCRYAQTPANMFYIVACDNRDQRRDPPQYPVVPVHLDRII",glycan array binding signal (z-score),[1],12.5
same,glycan array binding signal (z-score),[2],-0.171
same,glycan array binding signal (z-score),[3],1.45
same,glycan array binding signal (z-score),[4],-0.29
same,glycan array binding signal (z-score),[5],-0.033
same,glycan array binding signal (z-score),[6],0.078
same,glycan array binding signal (z-score),[7],0.129
same,glycan array binding signal (z-score),[8],0.131
same,glycan array binding signal (z-score),[9],-0.018
same,glycan array binding signal (z-score),[10],0.16
same,glycan array binding signal (z-score),[11],-0.3
same,glycan array binding signal (z-score),[12],-0.199
same,glycan array binding signal (z-score),[13],0.017
same,glycan array binding signal (z-score),GlcNAc(b1-3)Gal,-0.016
same,glycan array binding signal (z-score),[14],-0.554
same,glycan array binding signal (z-score),GlcNAc(b1-3)Gal(b1-4)Glc,-0.198
same,glycan array binding signal (z-score),[15],-0.144
same,glycan array binding signal (z-score),[16],-0.442
same,glycan array binding signal (z-score),GlcNAc(b1-3)GalNAc,0.083
same,glycan array binding signal (z-score),GlcNAc(b1-3)Man,-1.13
same,glycan array binding signal (z-score),[17],0.413
same,glycan array binding signal (z-score),[18],0.281
same,glycan array binding signal (z-score),[19],-0.311
same,glycan array binding signal (z-score),[20],-0.65
same,glycan array binding signal (z-score),GlcNAc(b1-4)GlcNAc,-0.215
same,glycan array binding signal (z-score),[21],-0.177
same,glycan array binding signal (z-score),[22],-0.747
same,glycan array binding signal (z-score),[23],-0.132
same,glycan array binding signal (z-score),[24],0.248
same,glycan array binding signal (z-score),[25],-0.341
same,glycan array binding signal (z-score),GlcNAc(b1-6)GalNAc,0.258
same,glycan array binding signal (z-score),GlcNAc3Prop(b1-4)GlcNAc,0.196
same,glycan array binding signal (z-score),[26],-1.39
same,glycan array binding signal (z-score),Kdn(a2-3)Gal(b1-3)GalNAc,-0.354
same,glycan array binding signal (z-score),Kdn(a2-3)Gal(b1-3)GlcNAc,0.411
same,glycan array binding signal (z-score),Kdn(a2-3)Gal(b1-4)Glc,-0.591
same,glycan array binding signal (z-score),Kdn(a2-3)Gal(b1-4)GlcNAc,0.615
same,glycan array binding signal (z-score),[27],0.206
same,glycan array binding signal (z-score),Kdn(a2-6)Gal(b1-4)GlcNAc,-0.368
same,glycan array binding signal (z-score),[28],0.33
same,glycan array binding signal (z-score),[29],-0.069
same,glycan array binding signal (z-score),Man(a1-2)Man(a1-3)Man,0.814
same,glycan array binding signal (z-score),[30],0.08
same,glycan array binding signal (z-score),[31],-0.124
same,glycan array binding signal (z-score),[32],0.081

# 2 records picked at random from those above, as already listed:
binder,measurement,setting,value
"Eosinophil-derived neurotoxin (EDN) (Homo sapiens), P10153 (protein) MVPKLFTSQICLLLLLGLLAVEGSLHVKPPQFTWAQWFETQHINMTSQQCTNAMQVINNYQRRCKNQNTFLLTTFANVVNVCGNPNMTCPSNKTRKNCHHSGSQVPLIHCNLTTPSPQNISNCRYAQTPANMFYIVACDNRDQRRDPPQYPVVPVHLDRII",glycan array binding signal (z-score),[29],-0.069
same,glycan array binding signal (z-score),[14],-0.554
